# Results reported in US5525503A, “Signal transduction via CD28” (priority 1993, dated 1996).
# Protein sequences, listed by entry. Tags and fused reporters are not part of them.
# UniProt P27986, whole entry: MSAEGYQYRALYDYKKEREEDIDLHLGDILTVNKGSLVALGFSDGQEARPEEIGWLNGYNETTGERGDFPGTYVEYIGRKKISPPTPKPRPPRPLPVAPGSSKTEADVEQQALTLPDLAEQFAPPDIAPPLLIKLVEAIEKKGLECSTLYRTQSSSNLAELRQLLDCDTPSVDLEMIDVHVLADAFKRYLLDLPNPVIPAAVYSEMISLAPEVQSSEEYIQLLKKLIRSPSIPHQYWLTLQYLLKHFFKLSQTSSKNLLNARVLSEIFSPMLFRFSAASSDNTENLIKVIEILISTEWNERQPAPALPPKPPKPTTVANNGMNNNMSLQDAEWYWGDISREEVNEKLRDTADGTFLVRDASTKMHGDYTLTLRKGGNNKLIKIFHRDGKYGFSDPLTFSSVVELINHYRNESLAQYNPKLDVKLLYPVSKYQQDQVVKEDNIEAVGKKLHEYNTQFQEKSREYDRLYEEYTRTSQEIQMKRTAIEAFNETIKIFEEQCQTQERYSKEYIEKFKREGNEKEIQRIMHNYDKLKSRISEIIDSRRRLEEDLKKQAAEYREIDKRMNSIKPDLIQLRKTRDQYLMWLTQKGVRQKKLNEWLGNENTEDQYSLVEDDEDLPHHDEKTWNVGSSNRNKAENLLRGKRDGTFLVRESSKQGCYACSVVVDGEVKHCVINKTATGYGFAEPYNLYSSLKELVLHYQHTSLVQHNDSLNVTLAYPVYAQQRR
# Part of at least one peptide drawing is inferred or uncertain, most often the ends.
# Target: association of PI 3-kinase with CD28 (Homo sapiens, UniProt P27986)
# Test: Peptide competition: displacement of PI 3-kinase from CD28 (anti-CD28 immunoprecipitation, anti-p85 immunoblotting)
# Type: binding
Structure (SMILES),displacement of PI 3-kinase from CD28 / blocking of association (in words),"concentration at which the peptide effectively displaced PI 3-kinase from CD28 (T cell (Jurkat) lysates exposed to peptide 2 hours, anti-CD28 immunoprecipitation, anti-p85 immunoblot)","reduction of the level of CD28-associated p85 PI 3-kinase (in words) (peptide 100-250 μM, compared with 10-50 μM)"
CSCC[C@H](NC(=O)[C@H](Cc1ccc(OP(=O)(O)O)cc1)NC(=O)[C@H](CC(=O)O)NC(=O)[C@H](CO)NC(=O)[C@@H](N)Cc1c[nH]cn1)C(=O)N[C@@H](CC(N)=O)C(=O)N[C@@H](CCSC)C(=O)N[C@H](C(=O)N1CCC[C@H]1C(=O)N[C@@H](CCCNC(=N)N)C(=O)N[C@@H](CCCNC(=N)N)C(=O)O)[C@@H](C)O [His-Ser-Asp-Tyr-Met-Asn-Met-Thr-Pro-Arg-Arg],blocked the association of PI 3-kinase with CD28,–,–
CSCC[C@H](NC(=O)[C@@H]1CCCN1C(=O)[C@H](CCSC)NC(=O)[C@H](Cc1ccc(OP(=O)(O)O)cc1)NC(=O)[C@H](CCC(=O)O)NC(=O)[C@H](CCC(=O)O)NC(=O)[C@@H](N)CCC(=O)O)C(=O)N[C@@H](CCC(=O)O)C(=O)N[C@@H](CC(=O)O)C(=O)N[C@@H](CC(C)C)C(=O)N[C@@H](Cc1ccc(O)cc1)C(=O)N[C@@H](CC(C)C)C(=O)O [Glu-Glu-Glu-Tyr-Met-Pro-Met-Glu-Asp-Leu-Tyr-Leu],–,≤ 10 µM,greater effects
